# Paper PMC9462477
# Protein sequences, listed by entry. Tags and fused reporters are not part of them. Lines headed by an entry give the natural chain unless they say otherwise; changes in a name come on top. Chains listed by the source or under a name are the forms on record and can include a tag or linker. Residues count along the entry.
# UniProt P43006: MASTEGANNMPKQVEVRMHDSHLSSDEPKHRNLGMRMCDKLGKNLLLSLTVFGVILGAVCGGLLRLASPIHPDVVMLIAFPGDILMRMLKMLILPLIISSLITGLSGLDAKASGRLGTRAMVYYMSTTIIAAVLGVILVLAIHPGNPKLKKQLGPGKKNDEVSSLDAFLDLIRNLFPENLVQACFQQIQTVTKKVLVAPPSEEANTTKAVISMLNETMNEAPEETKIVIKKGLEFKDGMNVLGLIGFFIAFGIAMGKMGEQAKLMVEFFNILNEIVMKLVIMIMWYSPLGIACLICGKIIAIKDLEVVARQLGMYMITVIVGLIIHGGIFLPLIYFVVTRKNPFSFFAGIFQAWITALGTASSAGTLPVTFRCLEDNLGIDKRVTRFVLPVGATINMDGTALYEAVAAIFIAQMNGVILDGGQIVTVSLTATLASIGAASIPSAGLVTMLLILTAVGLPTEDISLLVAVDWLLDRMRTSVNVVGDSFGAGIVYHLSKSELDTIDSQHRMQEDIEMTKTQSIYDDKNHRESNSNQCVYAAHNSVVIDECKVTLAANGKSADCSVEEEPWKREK
# EAAT2-FLAG (excitatory amino acid transporter 2, FLAG-tagged) (P43004, residues 10-574): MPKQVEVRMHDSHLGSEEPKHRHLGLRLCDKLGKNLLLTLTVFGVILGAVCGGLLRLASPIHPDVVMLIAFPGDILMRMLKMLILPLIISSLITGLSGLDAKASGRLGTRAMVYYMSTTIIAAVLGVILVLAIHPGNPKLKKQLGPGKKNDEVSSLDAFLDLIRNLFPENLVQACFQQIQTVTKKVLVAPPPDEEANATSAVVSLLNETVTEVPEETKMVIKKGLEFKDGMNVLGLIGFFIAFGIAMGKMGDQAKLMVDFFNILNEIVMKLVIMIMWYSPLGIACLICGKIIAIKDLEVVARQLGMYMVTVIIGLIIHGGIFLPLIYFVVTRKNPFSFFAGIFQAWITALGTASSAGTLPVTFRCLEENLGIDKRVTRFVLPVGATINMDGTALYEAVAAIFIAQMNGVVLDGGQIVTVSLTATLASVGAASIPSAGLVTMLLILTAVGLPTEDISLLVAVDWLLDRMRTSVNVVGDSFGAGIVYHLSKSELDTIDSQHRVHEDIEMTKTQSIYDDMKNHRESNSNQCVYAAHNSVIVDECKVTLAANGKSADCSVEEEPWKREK
# EAAT2 K542E (P43004-2, form named): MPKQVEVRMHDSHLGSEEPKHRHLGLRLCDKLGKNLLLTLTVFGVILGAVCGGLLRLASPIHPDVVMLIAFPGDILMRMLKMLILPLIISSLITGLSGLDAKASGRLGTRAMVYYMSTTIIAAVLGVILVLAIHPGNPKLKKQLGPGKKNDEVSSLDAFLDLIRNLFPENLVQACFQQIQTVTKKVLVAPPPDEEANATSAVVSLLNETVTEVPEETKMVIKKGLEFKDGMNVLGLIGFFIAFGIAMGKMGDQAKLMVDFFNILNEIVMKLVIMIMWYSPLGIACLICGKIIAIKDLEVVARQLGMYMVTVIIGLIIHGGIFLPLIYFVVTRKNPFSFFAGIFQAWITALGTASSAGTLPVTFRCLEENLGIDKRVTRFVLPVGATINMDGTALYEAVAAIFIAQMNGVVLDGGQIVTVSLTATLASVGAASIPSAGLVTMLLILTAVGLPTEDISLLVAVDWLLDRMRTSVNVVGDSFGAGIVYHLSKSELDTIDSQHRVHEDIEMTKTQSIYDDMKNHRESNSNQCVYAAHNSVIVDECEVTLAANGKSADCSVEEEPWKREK
# EAAT2 K542G (P43004-2, form named): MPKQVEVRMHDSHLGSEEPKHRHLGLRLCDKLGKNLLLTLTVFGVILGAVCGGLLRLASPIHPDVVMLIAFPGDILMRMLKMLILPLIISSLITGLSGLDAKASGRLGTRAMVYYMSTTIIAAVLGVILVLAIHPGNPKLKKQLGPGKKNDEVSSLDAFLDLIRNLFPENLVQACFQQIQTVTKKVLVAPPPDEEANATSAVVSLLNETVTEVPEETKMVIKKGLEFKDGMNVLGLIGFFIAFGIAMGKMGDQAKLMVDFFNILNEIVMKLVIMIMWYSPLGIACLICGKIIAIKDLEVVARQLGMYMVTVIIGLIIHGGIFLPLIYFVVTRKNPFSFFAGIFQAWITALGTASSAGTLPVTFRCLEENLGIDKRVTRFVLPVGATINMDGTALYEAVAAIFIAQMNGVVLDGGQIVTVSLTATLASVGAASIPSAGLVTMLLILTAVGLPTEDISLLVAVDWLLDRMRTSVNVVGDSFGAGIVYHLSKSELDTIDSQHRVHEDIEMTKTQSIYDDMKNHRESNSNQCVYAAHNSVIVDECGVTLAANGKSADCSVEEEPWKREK
# EAAT2 K542R (P43004-2, form named): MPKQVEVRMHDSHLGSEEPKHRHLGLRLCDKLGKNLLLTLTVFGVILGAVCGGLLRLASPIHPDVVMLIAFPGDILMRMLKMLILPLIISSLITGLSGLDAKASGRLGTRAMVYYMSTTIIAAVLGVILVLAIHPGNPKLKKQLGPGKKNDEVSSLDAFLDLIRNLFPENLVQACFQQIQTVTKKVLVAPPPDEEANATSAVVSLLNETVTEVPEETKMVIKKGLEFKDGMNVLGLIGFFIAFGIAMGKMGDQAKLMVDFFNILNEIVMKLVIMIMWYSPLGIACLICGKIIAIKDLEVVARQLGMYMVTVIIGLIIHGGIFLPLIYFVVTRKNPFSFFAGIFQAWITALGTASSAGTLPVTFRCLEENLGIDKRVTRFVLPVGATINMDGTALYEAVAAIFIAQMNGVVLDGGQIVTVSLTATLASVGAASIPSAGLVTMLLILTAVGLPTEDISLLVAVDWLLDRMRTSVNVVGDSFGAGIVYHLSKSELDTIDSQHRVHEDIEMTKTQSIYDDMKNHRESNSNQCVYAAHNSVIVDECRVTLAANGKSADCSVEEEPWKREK
# UniProt Q9R049: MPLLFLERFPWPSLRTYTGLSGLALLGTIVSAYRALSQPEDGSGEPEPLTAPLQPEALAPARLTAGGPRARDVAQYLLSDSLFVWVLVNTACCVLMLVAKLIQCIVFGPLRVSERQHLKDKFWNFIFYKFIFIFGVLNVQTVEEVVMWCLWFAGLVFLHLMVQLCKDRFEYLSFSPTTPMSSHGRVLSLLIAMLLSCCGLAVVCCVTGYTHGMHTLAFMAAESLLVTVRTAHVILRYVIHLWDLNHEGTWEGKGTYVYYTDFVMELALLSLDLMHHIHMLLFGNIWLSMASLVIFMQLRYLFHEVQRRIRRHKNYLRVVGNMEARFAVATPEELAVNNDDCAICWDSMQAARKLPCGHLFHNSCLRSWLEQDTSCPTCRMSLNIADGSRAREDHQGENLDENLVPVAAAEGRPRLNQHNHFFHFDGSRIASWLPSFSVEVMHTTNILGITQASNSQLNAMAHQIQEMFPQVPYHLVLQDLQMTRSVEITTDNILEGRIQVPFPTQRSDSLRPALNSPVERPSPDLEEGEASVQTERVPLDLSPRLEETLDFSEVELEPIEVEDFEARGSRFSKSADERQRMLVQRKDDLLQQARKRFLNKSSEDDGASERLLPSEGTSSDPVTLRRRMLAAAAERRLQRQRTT
# UniProt Q9UKV5: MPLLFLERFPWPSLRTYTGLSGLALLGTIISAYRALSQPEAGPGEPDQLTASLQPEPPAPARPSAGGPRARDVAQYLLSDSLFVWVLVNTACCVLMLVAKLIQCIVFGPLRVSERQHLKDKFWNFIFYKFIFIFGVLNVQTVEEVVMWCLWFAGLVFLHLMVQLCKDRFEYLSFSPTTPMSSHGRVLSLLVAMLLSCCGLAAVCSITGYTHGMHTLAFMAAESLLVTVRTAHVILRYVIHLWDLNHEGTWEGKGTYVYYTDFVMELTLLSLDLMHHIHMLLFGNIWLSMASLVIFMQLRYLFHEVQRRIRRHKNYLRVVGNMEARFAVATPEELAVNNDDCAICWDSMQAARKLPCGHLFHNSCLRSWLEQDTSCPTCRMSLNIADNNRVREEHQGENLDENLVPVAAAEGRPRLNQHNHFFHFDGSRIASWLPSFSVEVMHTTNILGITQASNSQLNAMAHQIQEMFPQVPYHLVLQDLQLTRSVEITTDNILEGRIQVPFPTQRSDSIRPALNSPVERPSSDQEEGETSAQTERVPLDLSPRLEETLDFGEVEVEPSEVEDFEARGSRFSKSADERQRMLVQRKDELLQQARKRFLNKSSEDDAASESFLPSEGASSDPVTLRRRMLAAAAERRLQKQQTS
# Results are given in words; binding and its absence hold for the method and conditions named. For part of these data: Binding seen in cells or lysates may run through a third protein. Some entries that bind do so weakly or less than the wild type.
# Columns and labels:
# [1] = target: EAAT2, endogenous mouse (mouse (endogenous in hippocampus and primary astrocytes)) (UniProt P43006); assay: co-IP; mouse hippocampal lysates, precipitated with rabbit anti-EAAT2 or rabbit anti-AMFR antibody, detected with mouse antibodies; reciprocal
# [2] = target: EAAT2-FLAG (excitatory amino acid transporter 2, FLAG-tagged) (human) (UniProt P43004); assay: co-IP; HEK293 cells cotransfected with EAAT2-FLAG and AMFR-Myc for 48 hours, CelLytic M lysate, anti-FLAG or anti-c-Myc agarose, 4°C 4 hours, 3 washes with PBS, Western blot; reciprocal
# EAAT2 K542E (human) = EAAT2 K542E (human) (UniProt P43004); assay: native gel or EMSA; native-PAGE (loading buffer with 0.1% SDS, no BME or DTT) and immunoblot of HEK293 cells 48 hours after transfection of WT or mutant EAAT2 with AMFR or empty vector
# EAAT2 K542G (human) = EAAT2 K542G (human) (UniProt P43004); assay: as above
# EAAT2 K542R (human) = EAAT2 K542R (human) (UniProt P43004); assay: as above
# [3] = target: EAAT2, endogenous human (human (endogenous in hippocampal tissue)) (UniProt P43004); assay: native gel or EMSA; native-PAGE (loading buffer with 0.1% SDS, no BME or DTT) and immunoblot of lysates of human non-HS and HS hippocampal samples
# [4] = target: EAAT2, endogenous mouse (mouse (endogenous in hippocampus and primary astrocytes)) (UniProt P43006); assay: SDS-PAGE without reducing agents, immunoblot; lysates of primary cultured astrocytes, 2% SDS loading buffer without BME and DTT (Figure 2A), with AAV5-AMFR or control virus; with 20 mM BME and 100 mM DTT the oligomers dissociate
# [5] = target: EAAT2, endogenous mouse (mouse (endogenous in hippocampus and primary astrocytes)) (UniProt P43006); assay: native gel or EMSA; native-PAGE (loading buffer with 0.1% SDS, no BME or DTT) and immunoblot of mouse hippocampal lysates; KA-induced SE, AAV5-AMFR OE or KD, APAP, 17AAG
# [6] = target: EAAT2, endogenous mouse (mouse (endogenous in hippocampus and primary astrocytes)) (UniProt P43006); assay: native gel or EMSA; native-PAGE (12% precast gel, loading buffer with 0.1% SDS, no BME or DTT) and immunoblot of lysates and membrane extracts of primary cultured mouse astrocytes; AMFR overexpression or knockdown
# [7] = target: AMFR, endogenous mouse (mouse (endogenous in hippocampus)) (UniProt Q9R049); assay: co-IP; mouse hippocampal lysates, precipitated with rabbit anti-EAAT2 or rabbit anti-AMFR antibody, detected with mouse antibodies; reciprocal
# AMFR-Myc = AMFR-Myc (UniProt Q9UKV5); assay: co-IP; HEK293 cells cotransfected with EAAT2-FLAG and AMFR-Myc for 48 hours, CelLytic M lysate, anti-FLAG or anti-c-Myc agarose, 4°C 4 hours, 3 washes with PBS, Western blot; reciprocal
# [8] = target: EAAT2-FLAG (excitatory amino acid transporter 2, FLAG-tagged) (human) (UniProt P43004); assay: native gel or EMSA; native-PAGE (loading buffer with 0.1% SDS, no BME or DTT) and immunoblot of HEK293 cells 48 hours after transfection of WT or mutant EAAT2 with AMFR or empty vector
substance,measurement,setting,value
"AMFR, endogenous mouse (from UniProt Q9R049 1-643) (enzyme)",binding,[1],binds
AMFR-Myc (from UniProt Q9UKV5 1-643) (enzyme),binding,[2],binds
EAAT2 K542E (from UniProt P43004-2 1-565),binding,EAAT2 K542E (human),binds
EAAT2 K542G (from UniProt P43004-2 1-565),binding,EAAT2 K542G (human),binds
EAAT2 K542R (from UniProt P43004-2 1-565),binding,EAAT2 K542R (human),binds
"EAAT2, endogenous human (from UniProt P43004-2 1-565)",binding,[3],binds
"EAAT2, endogenous mouse (from UniProt P43006 1-572)",binding,[4],binds
same,binding,[5],binds
same,binding,[6],binds
same,binding,[7],binds
"EAAT2-FLAG (excitatory amino acid transporter 2, FLAG-tagged) (from UniProt P43004-2 1-565)",binding,AMFR-Myc,binds
same,binding,[8],binds
